Results published in PubChem BioAssay AID248 (DTP/NCI, 2004).
The list is a part of this screen's results and no random one: it is rich in T/C values a quarter to a half above the control, in often repeated tests (any T/C) and in doses without a T/C. Other doses and runs of a compound stand elsewhere. T/C: endpoint of the treated group in % of that of the vehicle group. Some entries give survivors of the animals treated and no T/C: the source files T/C as zero there, which appears to mark a toxic dose or a test without result, not a measured value. Some survivor counts are full or nearly so, which does not show that the dose was tolerated: the source hardly ever lists a survival T/C far under the control, and the zero likely stands for such cases as well. Counts of survivors are from the toxicity check (mostly the fifth day) where no day follows; animals may have died later. Schedules are NCI's codes, taken here to give the interval after Q, in days (D) or hours (H), and the number of doses after X. Some schedule codes hold Z or #, which are not explained here. Where survival is the endpoint, the PubChem record calls one and a half times the control and up active, and a quarter to a half above the control has no call in these data; cut-offs in other NCI protocols can differ. Some doses were run more than once; their values stand side by side, smallest first. Some T/C values carry the count of animals alive at the toxicity check (mostly the fifth day); where none is given, no animal had died by that day.

Test system: L1210 leukemia ip in BDF1 mice, survival T/C
Assay: NCI In Vivo Anticancer Drug Screen. Data for tumor model L1210 Leukemia (intraperitoneal) in B6D2F1 (BDF1) mice
Conditions: T/C endpoint: mean survival time, higher T/C = longer survival
[1] = dose: 40.0 micrograms/kg/injection, schedule: Q01DX Z (ip), vehicle: carboxymethylcellulose (CMC)

**Q.** How did the T/C (dose: 32.0 micrograms/kg/injection, schedule: Q01DX009 (ip), vehicle: clinical formulation) turn out when `Cc1c2oc3c(C)ccc(C(=O)N[C@@H]4C(=O)N[C@H](C(C)C)C(=O)N5CCC[C@H]5C(=O)N(C)CC(=O)N(C)[C@@H](C(C)C)C(=O)O[C@H]4C)c3nc-2c(C(=O)N[C@@H]2C(=O)N[C@H](C(C)C)C(=O)N3CCC[C@H]3C(=O)N(C)CC(=O)N(C)[C@@H](C(C)C)C(=O)O[C@H]2C)c(N)c1=O` was run?
**A.** 138 % of control

**Q.** What about the T/C (dose: 32.0 micrograms/kg/injection, schedule: Q01DX009 (ip), vehicle: saline) of the same molecule?
**A.** 129 % of control [8 of 10 alive]

**Q.** And the T/C (dose: 32.0 micrograms/kg/injection, schedule: Q01DX009 (ip), vehicle: water, evaluated on day 5)?
**A.** 139 % of control

**Q.** What about the T/C (dose: 32.0 micrograms/kg/injection, schedule: Q01DX009 (ip), vehicle: water, evaluated on day 30) of the same molecule?
**A.** 135 % of control

**Q.** And the T/C (dose: 32.0 micrograms/kg/injection, schedule: Q01DX009 (ip), vehicle: water, evaluated on day 60)?
**A.** 141 % of control

**Q.** What about the T/C (dose: 37.0 micrograms/kg/injection, schedule: Q03DX Z (ip), vehicle: other) of the same molecule?
**A.** 131 % of control

**Q.** What about the T/C (dose: 37.0 micrograms/kg/injection, schedule: Q03DX Z (ip), vehicle: saline) of the same molecule?
**A.** 144 % of control

**Q.** What about the T/C (dose: 37.5 micrograms/kg/injection, schedule: Q01DX009 (ip), vehicle: saline + alcohol) of the same molecule?
**A.** 139 % of control

**Q.** What about the T/C [1] of the same molecule?
**A.** 134 % of control

**Q.** What about the survivor count [1] of the same molecule?
**A.** 0 of 6

**Q.** And the T/C (dose: 45.0 micrograms/kg/injection, schedule: Q01DX015 (ip), vehicle: saline)?
**A.** 125 and 137 % of control

**Q.** And the T/C (dose: 50.0 micrograms/kg/injection, schedule: Q01DX009 (ip), vehicle: saline + alcohol)?
**A.** 140 % of control

**Q.** What about the T/C (dose: 50.0 micrograms/kg/injection, schedule: Q01DX009 (ip), vehicle: saline) of the same molecule?
**A.** 129 % of control

**Q.** And the T/C (dose: 50.0 micrograms/kg/injection, schedule: Q01DX010 (ip), vehicle: other)?
**A.** 109, 141, 143, 167 % of control

**Q.** And the survivor count (dose: 60.0 micrograms/kg/injection, schedule: Q01DX Z (ip), vehicle: carboxymethylcellulose (CMC))?
**A.** 0 of 6

**Q.** What about the T/C (dose: 64.0 micrograms/kg/injection, schedule: Q01DX009 (ip), vehicle: saline) of the same molecule?
**A.** 125 % of control [8 of 10 alive]

**Q.** And the T/C (dose: 64.0 micrograms/kg/injection, schedule: Q01DX009 (ip), vehicle: water, evaluated on day 5)?
**A.** 135 % of control

**Q.** And the T/C (dose: 64.0 micrograms/kg/injection, schedule: Q01DX009 (ip), vehicle: water, evaluated on day 30)?
**A.** 130 % of control

**Q.** And the T/C (dose: 67.0 micrograms/kg/injection, schedule: Q02DX008 (ip), vehicle: saline)?
**A.** 138 % of control

**Q.** And the T/C (dose: 75.0 micrograms/kg/injection, schedule: Q01DX009 (ip), vehicle: saline + alcohol)?
**A.** 145 % of control

**Q.** What about the T/C (dose: 75.0 micrograms/kg/injection, schedule: Q03DX Z (ip), vehicle: other) of the same molecule?
**A.** 134 % of control

**Q.** What about the T/C (dose: 100.0 micrograms/kg/injection, schedule: Q01DX010 (ip), vehicle: other) of the same molecule?
**A.** 117, 136, 139, 145 % of control

**Q.** And the T/C (dose: 100.0 micrograms/kg/injection, schedule: Q01DX015 (ip), vehicle: saline)?
**A.** 126 and 144 % of control

**Q.** And the T/C (dose: 100.0 micrograms/kg/injection, schedule: Q01DX Z (im), vehicle: other)?
**A.** 128 % of control

**Q.** What about the T/C (dose: 100.0 micrograms/kg/injection, schedule: Q02DX008 (ip), vehicle: saline) of the same molecule?
**A.** 137 % of control

**Q.** And the T/C (dose: 104.0 micrograms/kg/injection, schedule: Q## X032 (ip), vehicle: saline)?
**A.** 132 % of control

**Q.** What about the T/C (dose: 112.0 micrograms/kg/injection, schedule: Q04DX003 (ip), vehicle: saline + alcohol) of the same molecule?
**A.** 132 % of control

**Q.** And the survivor count (dose: 128.0 micrograms/kg/injection, schedule: Q01DX009 (ip), vehicle: clinical formulation)?
**A.** 9 of 10

**Q.** And the survivor count (dose: 128.0 micrograms/kg/injection, schedule: Q01DX009 (ip), vehicle: saline)?
**A.** 10 of 10

**Q.** And the T/C (dose: 135.0 micrograms/kg/injection, schedule: Q## X004 (ip), vehicle: saline)?
**A.** 144 % of control

**Q.** And the T/C (dose: 150.0 micrograms/kg/injection, schedule: Q03DX Z (ip), vehicle: other)?
**A.** 144 % of control

**Q.** And the T/C (dose: 150.0 micrograms/kg/injection, schedule: Q04DX003 (ip), vehicle: saline + alcohol)?
**A.** 132 % of control

**Q.** And the T/C (dose: 150.0 micrograms/kg/injection, schedule: Q04DX003 (ip), vehicle: saline)?
**A.** 132 % of control

**Q.** And the T/C (dose: 160.0 micrograms/kg/injection, schedule: Q## X032 (ip), vehicle: saline)?
**A.** 128 % of control

**Q.** And the T/C (dose: 225.0 micrograms/kg/injection, schedule: Q02DX008 (ip), vehicle: saline)?
**A.** 148 % of control

**Q.** What about the T/C (dose: 225.0 micrograms/kg/injection, schedule: Q04DX003 (ip), vehicle: saline + alcohol) of the same molecule?
**A.** 140 % of control

**Q.** What about the T/C (dose: 240.0 micrograms/kg/injection, schedule: Q## X032 (ip), vehicle: saline) of the same molecule?
**A.** 127 % of control

**Q.** And the T/C (dose: 256.0 micrograms/kg/injection, schedule: Q01DX001 (ip), vehicle: saline)?
**A.** 140 % of control

**Q.** What about the T/C (dose: 256.0 micrograms/kg/injection, schedule: Q04DX003 (ip), vehicle: water) of the same molecule?
**A.** 133 % of control

**Q.** What about the T/C (dose: 300.0 micrograms/kg/injection, schedule: Q04DX003 (ip), vehicle: saline + alcohol) of the same molecule?
**A.** 144 % of control

**Q.** And the T/C (dose: 300.0 micrograms/kg/injection, schedule: Q## X004 (ip), vehicle: saline)?
**A.** 144 % of control

**Q.** And the T/C (dose: 330.0 micrograms/kg/injection, schedule: Q02DX008 (ip), vehicle: saline)?
**A.** 135 % of control

**Q.** What about the T/C (dose: 350.0 micrograms/kg/injection, schedule: Q01DX001 (ip), vehicle: other) of the same molecule?
**A.** 140 % of control

**Q.** What about the T/C (dose: 350.0 micrograms/kg/injection, schedule: Q07DX Z (ip), vehicle: other) of the same molecule?
**A.** 145 % of control

**Q.** What about the T/C (dose: 360.0 micrograms/kg/injection, schedule: Q## X032 (ip), vehicle: saline) of the same molecule?
**A.** 126 % of control

**Q.** And the T/C (dose: 400.0 micrograms/kg/injection, schedule: Q01DX001 (ip), vehicle: saline)?
**A.** 130 % of control

**Q.** And the T/C (dose: 512.0 micrograms/kg/injection, schedule: Q01DX001 (ip), vehicle: clinical formulation)?
**A.** 134 % of control
